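Viability assay of Plasmodium falciparum sporozoites; the read-out is not stated. The concentration is filed as 10 mM, unlikely as a test dose, so the dose is not known. Direction is inferred from retests: higher values go with lower viability. Strong results were mostly tested again. Size under these conditions: about 34,000 compounds, about 280 of them at 50% or above in at least one test.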

Values are the deposited “Percent Effect”, in %.
The controls that fix the scale are not given in the record; negative values are as filed.
This is an unselected part of the compounds tested.
Two or more numbers in one place are separate tests of the same structure; such repeats can differ widely.

compound	Percent Effect
CCc1c(C)nc(C2CCCN2C(=O)c2cc(C)no2)nc1O (stereo unspecified)	9.094
CC(=O)N1CCC(c2cncc(N3CCOCC3)n2)CC1	3.487
CN(Cc1ccc2nsnc2c1)CC1(O)CNCCOC1 (stereo unspecified)	-9.576
Cc1cnn(CC2CCCN2C(=O)c2csc(C3CC3)n2)c1 (stereo unspecified)	-9.354
Cc1nc(C)n(CC2CCCN(CCc3ccccc3)C2)n1 (stereo unspecified)	-3.857
O=C(NCCS(=O)(=O)N1CCc2ccccc21)c1c(O)cc(F)cc1F	-18.03
Cl.Cl.c1ccc2c(c1)C(NC1CCCC1)CC21CCNCC1 (stereo unspecified)	9.107
CCN1CC2(CC1=O)CN(C(=O)NC(C)C)CCN(C(=O)C(C)C)C2 (stereo unspecified)	2.997
Cc1ncc2c(n1)CN(Cc1nnc(-c3ccccc3)o1)CC2	18.16 and 2.949 and 17.25
[H][C@@]12CCN(c3cccc(F)c3)C[C@@]1([H])O[C@H](C(=O)N1CCN(C)CC1)C2	12.14
O=C(Nc1cnn(CCN2CCOCC2)c1)c1ccccc1Cl	-1.357
CCc1nccn1C1CCCN(C(=O)c2ccc3c(c2)OCCO3)C1 (stereo unspecified)	-12.56
COC(=O)Cn1c(=O)nc2n1C(=O)N(c1ccc(Cl)cc1)C2	6.757
CC(C)CN(Cc1nc2c(cnn2C)c(=O)[nH]1)CC(C)C	14.23
CSCC(C)(O)CNC(=O)c1ccc(Br)cc1C (stereo unspecified)	-10.84
Cc1ccc(N2CCCC(NCc3ccccn3)C2)nn1 (stereo unspecified)	18.12
CC(=O)N1CCC2(CCN(CC3CCCCC3)C2)CC1	1.882
Cc1nn(C)c(C)c1-c1cnc(C2CCCN(C)C2)cn1 (stereo unspecified)	-21.75 and -20.87 and 0.3933
Cc1noc(C)c1-c1nc(C2CCCN(CCC(N)=O)C2)ccc1CO (stereo unspecified)	5.136
O=C(c1cc(C2CC2)on1)N1CCCC(n2cccn2)C1 (stereo unspecified)	15.21
Cc1cncc(C(=O)N2CCC3(CC2)NC(=O)CC3c2ccccc2)c1.O=C(O)C(F)(F)F (stereo unspecified)	13.64
[H][C@@]12C[C@@H](OCCOC)CN1CCN(C(=O)c1cnccn1)C2	-5.087
Cc1cnn(CC2CCCN2Cc2noc(C(C)C)n2)c1 (stereo unspecified)	5.384
[H][C@]12CC[C@]([H])(CN(Cc3ccc(OC)cc3)C1)N(Cc1snnc1C)C2	-19.88 and -19.13
Cl.[H][C@@]12CCN(Cc3ccsc3)C[C@]1([H])[C@@H](c1cccc(OC)c1)CN2C(C)=O	0.5927
CCOc1cccc2c1OCC(C(=O)NS(=O)(=O)c1ccc(Cl)cc1)=C2	10.72
[H][C@@]12CCCO[C@]1([H])[C@H](NC(=O)c1cnccn1)CN2c1ncccn1	-10.93
O=C(O)C(F)(F)F.[H][C@@]12OCCN(C(=O)c3ccc(F)cc3)[C@@]1([H])CC[C@H]2OCCN(C)C	5.175
Cc1cccc(CNC(=O)N(CCCO)C2CCc3ccccc32)n1 (stereo unspecified)	6.507
Cc1n[nH]c(C)c1-c1cnc(CC2CCCN(S(C)(=O)=O)C2)cn1 (stereo unspecified)	8.146
c1ccc2c(N3CCCC3Cn3cccn3)ncnc2c1 (stereo unspecified)	11.11
Cc1noc2nc(C3CCN(Cc4ccccn4)CC3)cc(C(F)F)c12	-3.264
CCc1nc(-c2ccc(NC(=O)N3CCOCC3)cc2)no1	27.34 and -46.55 and -40.04
O=C(CCc1cc2n(n1)CCCN(C(=O)c1ccccn1)C2)NC1CC1	-2.912
CN1C[C@@H](C(=O)NC(C)(C)C)[C@@]2(CCc3ccccc3C(=O)N2)C1	-1.963
Cn1c(=O)c2cc(C(=O)NCCOc3ccccc3)ccc2n(C)c1=O	-8.325
CS(=O)(=O)CCSc1nnc(Cc2ccccc2F)o1	-5.789
CN(Cc1cccc(F)c1)S(=O)(=O)N1CCOCC1	7.103
O=S(=O)(c1cn[nH]c1)N1CCC(O)(CN2CCC(F)(F)CC2)C1 (stereo unspecified)	-10.59
CN(C)Cc1cccc(-c2cccnc2C(=O)NCc2cn(C)cn2)c1	4.491
CNS(=O)(=O)c1cccc(C(C)NCc2ccc(C)c(C)c2)c1 (stereo unspecified)	-2.525
Cc1cnn(CCC(=O)N2CCCN(c3ccccc3C#N)CC2)c1	-297
CC(=O)N1CCCC(c2ccc(C(=O)NC3CCCC3)cn2)C1 (stereo unspecified)	7.258
Cc1noc(C)c1CN(C)CCC(=O)N1CCc2sccc2C1	-5.392
O=C(NC1CCCC1)N1CCC2(CC1)CC(Oc1cccnc1)CO2 (stereo unspecified)	7.302
Cc1cnn(CCNCc2csc(C)n2)c1	-6.652
O=C(N[C@@H]1CCC[C@@H](n2ccnc2)[C@@H]1O)c1ccc2c(c1)CCCC2	8.061
CNc1ncc(CN(C)Cc2cc(O)c3cccc(Cl)c3n2)cn1	-5.506
CN(C)S(=O)(=O)N1CCC[C@]2(C[C@@H](Oc3ccccn3)CO2)C1.O=C(O)C(F)(F)F	-1.006
O=S(=O)(NCc1cn2ccccc2n1)N1CCOCC1	-0.6055
O=C(CC1CC1)NCc1cn2c(n1)CN(Cc1nccs1)CC2.O=C(O)C(F)(F)F	3.872
CCc1nc2n(n1)CC(NCCC(=O)Nc1cc(C)on1)CC2 (stereo unspecified)	1.248
O=C(O)C(F)(F)F.[H][C@@]12CCCO[C@]1([H])[C@@H](OCC1CC1)CN2S(=O)(=O)c1cn(C)cn1	-6.217
COCCOc1cccc(C(=O)N2CCCC(n3cccn3)C2)c1 (stereo unspecified)	-4.444
CCS(=O)(=O)NCC1Cn2nnc(-c3cccc(C)c3)c2CO1 (stereo unspecified)	2.641
CCC(C)NS(=O)(=O)Cc1cccc(NC(=O)C2=CCCC2)c1 (stereo unspecified)	-1.221
Cc1cc(C(=O)N2CCc3nc(C4CCCCN4)ncc3C2)cs1.Cl (stereo unspecified)	1.966
Cc1c(C(=O)NCC(C)(C)S(C)(=O)=O)cccc1-c1ccccn1	6.267
CC(Cn1ccnc1)NC(=O)N1CCN(Cc2ccco2)CC1 (stereo unspecified)	-3.74
CCc1ncnc2c1CCN(C(=O)N1CCCC1)CC2	-0.974
O=S(=O)(N1CCOCC1)N1CCC(Oc2cnccn2)CC1	9.29
O=C(C1CC1)N1CCC(O)(CN2CCN(c3ccccc3)CC2)C1 (stereo unspecified)	1.726
O=C([C@@H]1CCCO1)N1CCn2c(Cn3cccn3)cnc2C1	8.249

The last 6 entries again:

{"compound": "Cc1c(C(=O)NCC(C)(C)S(C)(=O)=O)cccc1-c1ccccn1", "Percent Effect": 6.267}
{"compound": "CC(Cn1ccnc1)NC(=O)N1CCN(Cc2ccco2)CC1", "stereo": "stereo unspecified", "Percent Effect": -3.74}
{"compound": "CCc1ncnc2c1CCN(C(=O)N1CCCC1)CC2", "Percent Effect": -0.974}
{"compound": "O=S(=O)(N1CCOCC1)N1CCC(Oc2cnccn2)CC1", "Percent Effect": 9.29}
{"compound": "O=C(C1CC1)N1CCC(O)(CN2CCN(c3ccccc3)CC2)C1", "stereo": "stereo unspecified", "Percent Effect": 1.726}
{"compound": "O=C([C@@H]1CCCO1)N1CCn2c(Cn3cccn3)cnc2C1", "Percent Effect": 8.249}

Measurements from “University of Dundee, Small-Polar-MMV Screening Library” (2021), ChEMBL document CHEMBL3988442.